# Results: the supplement of paper PMC8728848
# The list shows a part of the results.
# B1: EUL D1A (Oryza sativa) (protein)
# chain: MFGFGHHHNQAPAAPSDPNQIFKIFCRANENYCLTVRDSAVVLAPVNPKDEHQHWFKDMRFSTKVKDGEGMPAFALVNKATGLAVKHSLGQSHPVKLVPFNPEYEDASVLWTESKDVGKGFRCIRMVNNTRLNLDAFHGDKDHGGVRDGTTVVLWEWCKGDNQSWKILPWGPEAHSSSPGAATACTIGGVPVHTVRVFSAAGEDYCLTVRNGTACLAPKNPRDDYQHWIKDMRHSNKIRDEEGYPAFALVNKVTGEAIKHSTGQGHPVKLVPYNPEYQDESVLWTESKDVGKGFRCIRMVNNIYLNFDAFHGDKDHGGIHDGTEIVLWKWCEGDNQRWKILPWILEQKLISEEDLNSAVDHHHHHH
# Legend:
# Experiment in all cases: glycan array binding signal (z-score within array); higher = stronger binding
# Conditions in all cases: glycan notation: IUPAC condensed, linker removed
# Gal(b1-2)Gal = molecular target: Gal(b1-2)Gal
# Procedure, shortened: (§1)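 The Consortium for Functional Glycomics database supplied 3228 glycan arrays, of which those lacking an available protein sequence were dropped. The binding signal, a within-array Z-score, was averaged across arrays of the same protein sequence and across linkers. Negative scores can be read as non-binding.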
# Gal(b1-3)Gal = molecular target: Gal(b1-3)Gal
# Procedure, shortened: as §1
# Gal(b1-3)Gal(b1-4)GlcNAc = molecular target: Gal(b1-3)Gal(b1-4)GlcNAc
# Procedure, shortened: as §1
# Gal(b1-3)GalNAc = molecular target: Gal(b1-3)GalNAc
# Procedure, shortened: as §1
# [1] = molecular target: Gal(b1-3)GalNAc(a1-3)[Fuc(a1-2)]Gal(b1-4)Glc
# Procedure, shortened: as §1
# [2] = molecular target: Gal(b1-3)GalNAc(a1-3)[Fuc(a1-2)]Gal(b1-4)GlcNAc
# Procedure, shortened: as §1
# Gal(b1-3)GalNAc(b1-3)Gal = molecular target: Gal(b1-3)GalNAc(b1-3)Gal
# Procedure, shortened: as §1
# [3] = molecular target: Gal(b1-3)GalNAc(b1-3)Gal(a1-4)Gal(b1-4)Glc
# Procedure, shortened: as §1
# [4] = molecular target: Gal(b1-3)GalNAc(b1-4)Gal(b1-4)Glc
# Procedure, shortened: as §1
# [5] = molecular target: Gal(b1-3)GalNAc(b1-4)[Neu5Ac(a2-3)]Gal(b1-4)Glc
# Procedure, shortened: as §1
# Gal(b1-3)GlcNAc = molecular target: Gal(b1-3)GlcNAc
# Procedure, shortened: as §1
# [6] = molecular target: Gal(b1-3)GlcNAc(a1-3)Gal(b1-4)GlcNAc
# Procedure, shortened: as §1
# [7] = molecular target: Gal(b1-3)GlcNAc(a1-6)Gal(b1-4)GlcNAc
# Procedure, shortened: as §1
# Gal(b1-3)GlcNAc(b1-2)Man = molecular target: Gal(b1-3)GlcNAc(b1-2)Man
# Procedure, shortened: as §1
# [8] = molecular target: Gal(b1-3)GlcNAc(b1-2)Man(a1-3)[Gal(b1-3)GlcNAc(b1-2)Man(a1-6)]Man(b1-4)GlcNAc(b1-4)GlcNAc
# Procedure, shortened: as §1
# [9] = molecular target: Gal(b1-3)GlcNAc(b1-2)Man(a1-3)[Gal(b1-3)GlcNAc(b1-2)Man(a1-6)]Man(b1-4)GlcNAc(b1-4)[Fuc(a1-6)]GlcNAc
# Procedure, shortened: as §1
# [10] = molecular target: Gal(b1-3)GlcNAc(b1-2)Man(a1-3)[GlcNAc(b1-4)][Gal(b1-3)GlcNAc(b1-2)Man(a1-6)]Man(b1-4)GlcNAc(b1-4)GlcNAc
# Procedure, shortened: as §1
# [11] = molecular target: Gal(b1-3)GlcNAc(b1-2)[Gal(b1-3)GlcNAc(b1-6)]Man(a1-6)[Gal(b1-3)GlcNAc(b1-2)Man(a1-3)]Man(b1-4)GlcNAc(b1-4)GlcNAc
# Procedure, shortened: as §1
# [12] = molecular target: Gal(b1-3)GlcNAc(b1-3)Gal(b1-3)GlcNAc
# Procedure, shortened: as §1
# [13] = molecular target: Gal(b1-3)GlcNAc(b1-3)Gal(b1-4)Glc
# Procedure, shortened: as §1
# [14] = molecular target: Gal(b1-3)GlcNAc(b1-3)Gal(b1-4)GlcNAc
# Procedure, shortened: as §1
# [15] = molecular target: Gal(b1-3)GlcNAc(b1-3)Gal(b1-4)GlcNAc(b1-2)Man(a1-3)[Gal(b1-3)GlcNAc(b1-3)Gal(b1-4)GlcNAc(b1-2)Man(a1-6)]Man(b1-4)GlcNAc(b1-4)GlcNAc
# Procedure, shortened: as §1
# [16] = molecular target: Gal(b1-3)GlcNAc(b1-3)Gal(b1-4)GlcNAc(b1-2)[Gal(b1-3)GlcNAc(b1-3)Gal(b1-4)GlcNAc(b1-6)]Man(a1-6)[Gal(b1-3)GlcNAc(b1-3)Gal(b1-4)GlcNAc(b1-2)Man(a1-3)]Man(b1-4)GlcNAc(b1-4)[Fuc(a1-6)]GlcNAc
# Procedure, shortened: as §1
# [17] = molecular target: Gal(b1-3)GlcNAc(b1-3)Gal(b1-4)GlcNAc(b1-3)Gal(b1-4)GlcNAc(b1-2)[Gal(b1-3)GlcNAc(b1-3)Gal(b1-4)GlcNAc(b1-3)Gal(b1-4)GlcNAc(b1-6)]Man(a1-6)[Gal(b1-3)GlcNAc(b1-3)Gal(b1-4)GlcNAc(b1-3)Gal(b1-4)GlcNAc(b1-2)Man(a1-3)]Man(b1-4)GlcNAc(b1-4)[Fuc(a1-6)]GlcNAc
# Procedure, shortened: as §1
# [18] = molecular target: Gal(b1-3)GlcNAc(b1-3)Gal(b1-4)GlcNAc(b1-6)[Gal(b1-3)GlcNAc(b1-3)]Gal(b1-4)Glc
# Procedure, shortened: as §1
# [19] = molecular target: Gal(b1-3)GlcNAc(b1-3)Gal(b1-4)[Fuc(a1-3)]GlcNAc
# Procedure, shortened: as §1
# [20] = molecular target: Gal(b1-3)GlcNAc(b1-3)Gal(b1-4)[Fuc(a1-3)]GlcNAc(b1-6)[Gal(b1-3)GlcNAc(b1-3)]Gal(b1-4)Glc
# Procedure, shortened: as §1
# [21] = molecular target: Gal(b1-3)GlcNAc(b1-3)GalNAc
# Procedure, shortened: as §1
# [22] = molecular target: Gal(b1-3)GlcNAc(b1-6)Gal(b1-4)GlcNAc
# Procedure, shortened: as §1
# [23] = molecular target: Gal(b1-3)GlcNAc(b1-6)GalNAc
# Procedure, shortened: as §1
# [24] = molecular target: Gal(b1-3)GlcNAc(b1-6)[Gal(b1-3)]GalNAc
# Procedure, shortened: as §1
# Gal(b1-3)GlcNAc6S = molecular target: Gal(b1-3)GlcNAc6S
# Procedure, shortened: as §1
# [25] = molecular target: Gal(b1-3)[Fuc(a1-4)]GlcNAc
# Procedure, shortened: as §1
# [26] = molecular target: Gal(b1-3)[Fuc(a1-4)]GlcNAc(b1-2)Man
# Procedure, shortened: as §1
# [27] = molecular target: Gal(b1-3)[Fuc(a1-4)]GlcNAc(b1-2)Man(a1-3)[Gal(b1-3)[Fuc(a1-4)]GlcNAc(b1-2)Man(a1-6)]Man(b1-4)GlcNAc(b1-4)[Fuc(a1-6)]GlcNAc
# Procedure, shortened: as §1
# [28] = molecular target: Gal(b1-3)[Fuc(a1-4)]GlcNAc(b1-3)Gal(b1-3)[Fuc(a1-4)]GlcNAc
# Procedure, shortened: as §1
# [29] = molecular target: Gal(b1-3)[Fuc(a1-4)]GlcNAc(b1-3)Gal(b1-4)[Fuc(a1-3)]GlcNAc
# Procedure, shortened: as §1
binder,measurement,setting,value
B1,glycan array binding signal (z-score),Gal(b1-2)Gal,1.06
same,glycan array binding signal (z-score),Gal(b1-3)Gal,-0.722
same,glycan array binding signal (z-score),Gal(b1-3)Gal(b1-4)GlcNAc,-0.557
same,glycan array binding signal (z-score),Gal(b1-3)GalNAc,-0.384
same,glycan array binding signal (z-score),[1],0.111
same,glycan array binding signal (z-score),[2],-1.11
same,glycan array binding signal (z-score),Gal(b1-3)GalNAc(b1-3)Gal,-0.437
same,glycan array binding signal (z-score),[3],0.844
same,glycan array binding signal (z-score),[4],0.314
same,glycan array binding signal (z-score),[5],0.083
same,glycan array binding signal (z-score),Gal(b1-3)GlcNAc,-0.925
same,glycan array binding signal (z-score),[6],-0.323
same,glycan array binding signal (z-score),[7],-0.331
same,glycan array binding signal (z-score),Gal(b1-3)GlcNAc(b1-2)Man,-0.463
same,glycan array binding signal (z-score),[8],1.87
same,glycan array binding signal (z-score),[9],-0.148
same,glycan array binding signal (z-score),[10],1.07
same,glycan array binding signal (z-score),[11],0.033
same,glycan array binding signal (z-score),[12],0.957
same,glycan array binding signal (z-score),[13],-0.916
same,glycan array binding signal (z-score),[14],-0.797
same,glycan array binding signal (z-score),[15],-0.811
same,glycan array binding signal (z-score),[16],2.06
same,glycan array binding signal (z-score),[17],1.55
same,glycan array binding signal (z-score),[18],-0.182
same,glycan array binding signal (z-score),[19],0.426
same,glycan array binding signal (z-score),[20],0.644
same,glycan array binding signal (z-score),[21],0.974
same,glycan array binding signal (z-score),[22],-1.08
same,glycan array binding signal (z-score),[23],-0.595
same,glycan array binding signal (z-score),[24],-0.146
same,glycan array binding signal (z-score),Gal(b1-3)GlcNAc6S,-0.943
same,glycan array binding signal (z-score),[25],-0.247
same,glycan array binding signal (z-score),[26],-0.158
same,glycan array binding signal (z-score),[27],0.658
same,glycan array binding signal (z-score),[28],-0.837
same,glycan array binding signal (z-score),[29],-0.883

# Laid out differently: results already given.
binder	measurement	setting	value
B1	glycan array binding signal (z-score)	Gal(b1-3)GalNAc	-0.384
same	glycan array binding signal (z-score)	[4]	0.314
